Drawing on PMC8073576, this text covers binding for one substance.

Chains of the proteins cited; added tags and fusions are not shown.
UniProt P07355: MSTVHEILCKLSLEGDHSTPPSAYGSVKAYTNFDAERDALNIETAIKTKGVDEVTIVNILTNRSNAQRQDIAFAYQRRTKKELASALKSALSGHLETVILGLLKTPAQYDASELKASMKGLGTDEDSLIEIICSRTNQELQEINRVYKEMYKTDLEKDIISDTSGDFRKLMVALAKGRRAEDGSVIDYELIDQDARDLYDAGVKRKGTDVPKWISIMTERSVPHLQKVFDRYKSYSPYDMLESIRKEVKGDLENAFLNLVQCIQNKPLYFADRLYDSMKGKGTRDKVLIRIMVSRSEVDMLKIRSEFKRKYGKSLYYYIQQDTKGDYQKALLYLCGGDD

Results are given in words; binding and its absence hold for the method and conditions named. Binding seen in cells or lysates may run through a third protein. These calls come from enrichment with a bait or labelling near it, and not all partners need be listed. Where a sequence is shown, tags or fusion partners need not be part of it.

This test deals with T1, FLAG-HIS-PRDX2 (human peroxiredoxin 2, wild-type) (human) (UniProt P32119).
T1 sequence: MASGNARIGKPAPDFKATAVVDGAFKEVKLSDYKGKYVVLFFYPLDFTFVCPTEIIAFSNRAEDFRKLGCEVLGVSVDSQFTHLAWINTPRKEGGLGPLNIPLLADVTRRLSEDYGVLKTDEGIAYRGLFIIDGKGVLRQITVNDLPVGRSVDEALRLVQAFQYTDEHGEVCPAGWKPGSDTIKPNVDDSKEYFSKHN
Nature of the test: affinity purification with mass spectrometry; Flag-PRDX2 (wild-type or CPRS mutant) immunoprecipitated on anti-Flag-M2 beads from HEK293T cells treated with 25 uM H2O2 for 2 min; free thiols alkylated with NEM and iodoacetamide; washes with lysis buffer containing 1 M NaCl; on-bead digestion, label-free quantification, proDA analysis of WT against CPRS; three biological replicates.

As to ANXA2 (from UniProt P07355 1-339), the binding entry is on record as “binds”.
